Laboratory results reported in the supplement of paper PMC6411743.
± gives the standard deviation of the averaged measurements. Only a part is listed here, and it is no random draw.

By UniProt entry, the sequences of proteins in these tests, tags left out. Where a name states a change or a piece, a line headed by the entry shows the natural chain unless it says otherwise.
UniProt Q8IZ40: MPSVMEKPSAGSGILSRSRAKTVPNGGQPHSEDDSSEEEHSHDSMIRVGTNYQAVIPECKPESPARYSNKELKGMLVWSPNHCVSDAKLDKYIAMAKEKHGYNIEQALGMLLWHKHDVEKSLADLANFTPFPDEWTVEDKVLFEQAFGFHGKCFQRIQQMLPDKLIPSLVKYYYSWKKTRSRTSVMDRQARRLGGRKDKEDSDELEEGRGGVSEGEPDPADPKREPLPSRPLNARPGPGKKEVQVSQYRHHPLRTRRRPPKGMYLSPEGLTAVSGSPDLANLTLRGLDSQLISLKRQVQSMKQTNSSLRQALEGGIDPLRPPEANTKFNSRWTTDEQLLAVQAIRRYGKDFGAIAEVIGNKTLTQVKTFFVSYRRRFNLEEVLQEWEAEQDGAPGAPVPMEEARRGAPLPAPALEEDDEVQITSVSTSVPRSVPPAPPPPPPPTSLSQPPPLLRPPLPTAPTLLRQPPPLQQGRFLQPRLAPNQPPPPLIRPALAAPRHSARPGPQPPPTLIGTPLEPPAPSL
UniProt Q8IZ73: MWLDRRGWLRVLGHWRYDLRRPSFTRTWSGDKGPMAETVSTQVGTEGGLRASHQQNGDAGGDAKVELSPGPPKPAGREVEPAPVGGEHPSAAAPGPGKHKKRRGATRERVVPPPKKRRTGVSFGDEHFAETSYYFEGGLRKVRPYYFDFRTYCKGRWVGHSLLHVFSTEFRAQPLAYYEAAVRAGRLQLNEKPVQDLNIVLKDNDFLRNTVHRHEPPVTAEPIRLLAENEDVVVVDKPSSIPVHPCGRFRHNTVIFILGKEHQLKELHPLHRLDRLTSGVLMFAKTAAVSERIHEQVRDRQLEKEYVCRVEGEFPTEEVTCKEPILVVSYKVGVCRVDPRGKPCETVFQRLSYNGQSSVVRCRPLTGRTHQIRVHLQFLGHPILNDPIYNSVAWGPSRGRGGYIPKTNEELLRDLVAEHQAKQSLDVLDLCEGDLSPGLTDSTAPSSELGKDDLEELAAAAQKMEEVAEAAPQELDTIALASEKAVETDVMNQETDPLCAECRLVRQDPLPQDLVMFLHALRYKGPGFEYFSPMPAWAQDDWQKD
UniProt Q8TAA9: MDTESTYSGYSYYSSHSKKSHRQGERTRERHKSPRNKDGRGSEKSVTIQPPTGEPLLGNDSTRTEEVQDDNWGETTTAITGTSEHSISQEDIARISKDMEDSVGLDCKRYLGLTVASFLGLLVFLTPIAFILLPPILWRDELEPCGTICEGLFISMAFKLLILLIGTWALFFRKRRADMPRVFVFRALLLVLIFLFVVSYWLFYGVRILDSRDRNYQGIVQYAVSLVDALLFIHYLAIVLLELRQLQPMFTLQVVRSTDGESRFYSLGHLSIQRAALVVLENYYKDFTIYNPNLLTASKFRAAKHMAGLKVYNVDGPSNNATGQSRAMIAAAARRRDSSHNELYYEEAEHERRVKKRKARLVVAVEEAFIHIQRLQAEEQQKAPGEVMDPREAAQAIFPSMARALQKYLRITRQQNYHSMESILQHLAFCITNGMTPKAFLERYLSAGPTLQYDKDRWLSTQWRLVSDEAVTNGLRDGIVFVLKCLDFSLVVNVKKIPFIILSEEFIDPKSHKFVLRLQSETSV
UniProt Q8NBP0: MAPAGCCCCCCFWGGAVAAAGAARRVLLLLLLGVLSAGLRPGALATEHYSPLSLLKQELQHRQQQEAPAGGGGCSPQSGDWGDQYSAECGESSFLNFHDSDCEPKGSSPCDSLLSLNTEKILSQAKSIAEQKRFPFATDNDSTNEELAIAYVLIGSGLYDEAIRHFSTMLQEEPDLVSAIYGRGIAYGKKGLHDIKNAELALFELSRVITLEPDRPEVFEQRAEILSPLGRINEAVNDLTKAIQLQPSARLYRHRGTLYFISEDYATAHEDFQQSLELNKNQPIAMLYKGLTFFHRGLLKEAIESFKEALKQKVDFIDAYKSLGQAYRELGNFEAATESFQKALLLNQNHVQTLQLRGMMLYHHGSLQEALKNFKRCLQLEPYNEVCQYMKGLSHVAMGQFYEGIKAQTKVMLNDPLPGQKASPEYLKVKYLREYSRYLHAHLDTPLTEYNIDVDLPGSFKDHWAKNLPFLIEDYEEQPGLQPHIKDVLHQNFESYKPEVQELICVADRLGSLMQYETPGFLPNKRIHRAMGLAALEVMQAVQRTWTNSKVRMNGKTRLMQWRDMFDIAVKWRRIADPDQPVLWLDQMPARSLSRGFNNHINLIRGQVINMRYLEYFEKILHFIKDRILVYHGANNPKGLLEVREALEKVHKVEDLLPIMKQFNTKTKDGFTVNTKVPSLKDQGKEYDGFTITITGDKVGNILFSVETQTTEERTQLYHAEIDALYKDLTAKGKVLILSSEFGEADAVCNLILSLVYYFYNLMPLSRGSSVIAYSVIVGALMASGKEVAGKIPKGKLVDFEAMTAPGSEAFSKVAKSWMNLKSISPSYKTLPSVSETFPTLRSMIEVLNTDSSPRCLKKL
UniProt Q8IXI1, whole entry, looked up: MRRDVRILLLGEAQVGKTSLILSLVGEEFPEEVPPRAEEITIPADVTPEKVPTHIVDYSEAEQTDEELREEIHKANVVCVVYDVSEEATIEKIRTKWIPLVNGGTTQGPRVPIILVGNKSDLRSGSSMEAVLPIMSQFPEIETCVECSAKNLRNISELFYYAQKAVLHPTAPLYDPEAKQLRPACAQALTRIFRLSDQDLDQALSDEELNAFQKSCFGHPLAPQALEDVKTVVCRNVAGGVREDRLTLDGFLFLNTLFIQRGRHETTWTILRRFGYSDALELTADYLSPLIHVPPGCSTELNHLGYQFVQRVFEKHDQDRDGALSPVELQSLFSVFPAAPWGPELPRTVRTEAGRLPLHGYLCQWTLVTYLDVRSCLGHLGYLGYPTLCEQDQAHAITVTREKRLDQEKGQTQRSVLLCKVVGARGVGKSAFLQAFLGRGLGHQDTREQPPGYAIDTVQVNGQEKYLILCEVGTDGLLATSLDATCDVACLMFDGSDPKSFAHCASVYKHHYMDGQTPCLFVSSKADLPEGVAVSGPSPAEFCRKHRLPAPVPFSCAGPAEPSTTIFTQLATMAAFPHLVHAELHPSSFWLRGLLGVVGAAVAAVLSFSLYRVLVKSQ
UniProt Q8NDX5: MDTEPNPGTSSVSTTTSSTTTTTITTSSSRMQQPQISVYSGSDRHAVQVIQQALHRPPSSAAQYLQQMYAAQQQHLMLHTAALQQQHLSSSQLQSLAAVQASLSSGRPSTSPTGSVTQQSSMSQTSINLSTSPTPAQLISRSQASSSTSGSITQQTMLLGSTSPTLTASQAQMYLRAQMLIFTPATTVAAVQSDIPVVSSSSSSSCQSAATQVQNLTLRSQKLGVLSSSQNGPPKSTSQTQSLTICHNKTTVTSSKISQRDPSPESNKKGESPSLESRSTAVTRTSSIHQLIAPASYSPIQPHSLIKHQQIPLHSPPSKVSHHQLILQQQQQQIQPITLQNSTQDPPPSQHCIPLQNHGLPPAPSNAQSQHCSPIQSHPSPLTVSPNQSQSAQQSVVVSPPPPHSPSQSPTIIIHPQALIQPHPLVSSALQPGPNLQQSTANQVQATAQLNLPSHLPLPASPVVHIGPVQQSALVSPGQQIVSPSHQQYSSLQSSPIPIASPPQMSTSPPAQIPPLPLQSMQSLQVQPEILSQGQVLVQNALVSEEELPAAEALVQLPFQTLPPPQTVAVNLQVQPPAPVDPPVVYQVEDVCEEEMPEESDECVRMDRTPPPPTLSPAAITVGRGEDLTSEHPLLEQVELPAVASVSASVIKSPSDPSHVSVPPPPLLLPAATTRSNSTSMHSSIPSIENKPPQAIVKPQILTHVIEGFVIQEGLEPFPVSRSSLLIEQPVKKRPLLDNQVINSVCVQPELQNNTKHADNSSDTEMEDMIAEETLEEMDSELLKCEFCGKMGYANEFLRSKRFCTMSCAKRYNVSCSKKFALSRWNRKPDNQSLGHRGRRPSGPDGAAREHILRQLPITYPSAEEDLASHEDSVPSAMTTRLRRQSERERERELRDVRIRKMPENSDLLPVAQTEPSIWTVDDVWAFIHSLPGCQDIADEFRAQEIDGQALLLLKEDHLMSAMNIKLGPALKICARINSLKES
UniProt Q8NHG8: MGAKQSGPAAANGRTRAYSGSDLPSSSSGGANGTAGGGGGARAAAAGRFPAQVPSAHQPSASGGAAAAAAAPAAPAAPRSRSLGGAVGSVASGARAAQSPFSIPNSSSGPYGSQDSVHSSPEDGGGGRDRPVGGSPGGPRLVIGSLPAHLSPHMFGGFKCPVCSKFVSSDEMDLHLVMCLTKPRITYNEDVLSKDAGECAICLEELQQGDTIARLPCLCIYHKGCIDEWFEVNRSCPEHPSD
UniProt Q8NFI3: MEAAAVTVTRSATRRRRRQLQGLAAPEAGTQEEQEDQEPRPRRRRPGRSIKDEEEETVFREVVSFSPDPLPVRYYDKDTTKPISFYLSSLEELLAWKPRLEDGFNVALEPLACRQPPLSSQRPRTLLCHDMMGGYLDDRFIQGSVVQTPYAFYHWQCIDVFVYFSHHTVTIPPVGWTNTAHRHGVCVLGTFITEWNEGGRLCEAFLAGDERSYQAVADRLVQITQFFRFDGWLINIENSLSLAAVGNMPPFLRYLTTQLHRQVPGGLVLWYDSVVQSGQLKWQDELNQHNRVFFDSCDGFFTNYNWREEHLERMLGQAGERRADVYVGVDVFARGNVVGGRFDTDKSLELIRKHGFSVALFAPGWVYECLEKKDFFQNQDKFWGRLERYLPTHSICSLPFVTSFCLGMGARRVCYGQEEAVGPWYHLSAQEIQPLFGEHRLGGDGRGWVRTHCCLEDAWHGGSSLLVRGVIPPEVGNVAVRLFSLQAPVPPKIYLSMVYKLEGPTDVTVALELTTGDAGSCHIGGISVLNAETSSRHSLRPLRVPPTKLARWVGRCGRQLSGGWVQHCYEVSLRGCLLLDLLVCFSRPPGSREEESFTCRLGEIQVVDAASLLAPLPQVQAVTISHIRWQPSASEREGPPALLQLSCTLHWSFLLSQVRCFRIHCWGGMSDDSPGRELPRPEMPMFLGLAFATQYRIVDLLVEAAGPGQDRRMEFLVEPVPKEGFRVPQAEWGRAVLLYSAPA
UniProt Q8N567: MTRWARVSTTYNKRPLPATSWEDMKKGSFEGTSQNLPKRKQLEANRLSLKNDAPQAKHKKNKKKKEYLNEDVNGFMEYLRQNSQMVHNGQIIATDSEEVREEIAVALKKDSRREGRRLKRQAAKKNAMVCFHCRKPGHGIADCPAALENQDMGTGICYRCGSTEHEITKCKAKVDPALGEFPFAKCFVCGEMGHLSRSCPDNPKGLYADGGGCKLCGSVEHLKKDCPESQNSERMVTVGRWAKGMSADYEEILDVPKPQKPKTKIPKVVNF
UniProt Q8IXT5: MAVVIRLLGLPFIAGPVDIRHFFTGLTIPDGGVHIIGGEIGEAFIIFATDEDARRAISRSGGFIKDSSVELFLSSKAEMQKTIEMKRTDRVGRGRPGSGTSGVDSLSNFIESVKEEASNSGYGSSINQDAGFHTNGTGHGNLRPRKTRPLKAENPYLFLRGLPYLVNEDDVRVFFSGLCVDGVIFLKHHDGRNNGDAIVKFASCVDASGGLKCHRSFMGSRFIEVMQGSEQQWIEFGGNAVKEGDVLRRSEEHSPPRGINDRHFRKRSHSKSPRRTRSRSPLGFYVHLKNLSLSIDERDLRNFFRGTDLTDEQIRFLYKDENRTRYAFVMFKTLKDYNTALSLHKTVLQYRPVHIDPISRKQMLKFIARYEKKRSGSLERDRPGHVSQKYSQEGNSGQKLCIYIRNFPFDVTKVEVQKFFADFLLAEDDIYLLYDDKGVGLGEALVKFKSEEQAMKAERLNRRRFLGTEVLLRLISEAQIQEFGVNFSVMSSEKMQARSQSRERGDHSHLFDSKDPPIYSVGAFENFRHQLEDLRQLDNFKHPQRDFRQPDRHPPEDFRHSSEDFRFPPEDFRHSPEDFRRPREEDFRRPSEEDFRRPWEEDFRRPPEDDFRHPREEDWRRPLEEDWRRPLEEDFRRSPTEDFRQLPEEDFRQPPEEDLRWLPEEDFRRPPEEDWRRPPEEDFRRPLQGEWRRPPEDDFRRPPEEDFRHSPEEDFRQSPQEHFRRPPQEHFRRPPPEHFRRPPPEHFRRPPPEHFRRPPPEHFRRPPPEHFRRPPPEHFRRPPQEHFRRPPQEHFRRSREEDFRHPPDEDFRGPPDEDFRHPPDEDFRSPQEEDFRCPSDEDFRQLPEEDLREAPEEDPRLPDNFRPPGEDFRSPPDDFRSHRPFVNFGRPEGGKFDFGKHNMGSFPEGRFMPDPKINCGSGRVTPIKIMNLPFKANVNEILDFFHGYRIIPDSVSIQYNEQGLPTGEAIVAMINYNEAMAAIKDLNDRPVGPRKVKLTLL
UniProt Q8N8R7: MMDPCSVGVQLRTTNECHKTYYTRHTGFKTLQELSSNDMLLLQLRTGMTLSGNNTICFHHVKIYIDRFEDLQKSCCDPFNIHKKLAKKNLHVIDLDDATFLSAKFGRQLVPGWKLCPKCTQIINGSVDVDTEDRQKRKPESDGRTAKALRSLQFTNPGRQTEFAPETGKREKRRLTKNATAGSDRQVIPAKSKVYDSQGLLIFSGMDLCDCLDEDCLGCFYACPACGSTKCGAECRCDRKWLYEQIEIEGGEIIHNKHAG

Compound: Nc1ncnc2c1ncn2[C@@H]1O[C@H](COP(=O)(O)OP(=O)(O)OP(=O)(O)O)[C@@H](O)[C@H]1O [adenosine triphosphate]
Test: NP40-soluble protein abundance relative to vehicle (solubility fold change) (ratio); higher = more soluble protein in presence of ATP
In short: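 In three independent experiments, Jurkat crude lysate made by Dounce homogenisation was treated for 10 min at room temperature and then 3 min at 37 °C with eight concentrations ranging from 0.1 to 10 mM. It was then solubilised with 0.8% NP40 plus benzonase for 60 min at 4 °C and ultracentrifuged. The supernatant was TMT-labelled for LC-MS/MS, and each value is the fold change against the detergent-processed vehicle for the same replicate, using vsn-normalised intensities.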

Target	NP40-soluble protein abundance (concentration: 1mM)	NP40-soluble protein abundance (concentration: 2mM)	NP40-soluble protein abundance (concentration: 4mM)	NP40-soluble protein abundance (concentration: 6mM)	NP40-soluble protein abundance (concentration: 8mM)	NP40-soluble protein abundance (concentration: 10mM)
RCOR2 (UniProt Q8IZ40)	0.952 ± 0.029	0.945 ± 0.0042	0.9376 ± 0.0055	1 ± 0.022	0.961 ± 0.041	1.01 ± 0.016
RPUSD2 (UniProt Q8IZ73)	1.01 ± 0.011	1.03 ± 0.028	1.07 ± 0.014	1.02 ± 0.032	1 ± 0.018	1.01 ± 0.031
UniProt Q8NC44	0.99 ± 0.096	0.98 ± 0.073	0.99 ± 0.057	0.955 ± 0.1	0.913 ± 0.078	0.942 ± 0.085
NFATC2IP (UniProt Q8NCF5)	1.03 ± 0.087	0.894 ± 0.15	0.979 ± 0.086	0.982 ± 0.033	0.9 ± 0.068	0.89 ± 0.076
UniProt Q8IYH5 and related entries	1.04 ± 0.14	0.989 ± 0.14	1.01 ± 0.13	1.07 ± 0.21	0.968 ± 0.14	1.04 ± 0.16
NUP37 (UniProt Q8NFH4)	1 ± 0.064	1.02 ± 0.048	0.996 ± 0.061	0.935 ± 0.096	1.02 ± 0.031	1.01 ± 0.039
UniProt Q8IVW6 and related entries	1.07 ± 0.06	1 ± 0.011	1.08 ± 0.14	1.04 ± 0.058	0.98 ± 0.04	0.976 ± 0.017
DTWD1 (UniProt Q8N5C7)	0.998 ± 0.069	0.945 ± 0.063	0.955 ± 0.062	0.941 ± 0.12	0.991 ± 0.033	0.99 ± 0.063
UniProt Q8IWS0 and related entries	1.06 ± 0.033	1.11 ± 0.012	1.101 ± 0.0072	1.16 ± 0.081	1.15 ± 0.034	1.16 ± 0.088
UniProt Q8TAA9 and related entries	1.1 ± 0.17	1.1 ± 0.2	1.1 ± 0.24	1.11 ± 0.29	1.07 ± 0.15	1.27 ± 0.18
TTC13 (UniProt Q8NBP0)	1.12 ± 0.11	1.1 ± 0.087	1.07 ± 0.12	1.09 ± 0.06	1.1 ± 0.054	1.14 ± 0.048
GIMAP7 (UniProt Q8NHV1)	0.952 ± 0.036	0.921 ± 0.074	0.92 ± 0.018	0.95 ± 0.021	0.933 ± 0.056	0.902 ± 0.023
RHOT2 (UniProt Q8IXI1)	1.09 ± 0.041	1.05 ± 0.064	1.06 ± 0.11	1.04 ± 0.062	1.04 ± 0.067	1.04 ± 0.068
UniProt Q8NA72 and related entries	1.01 ± 0.075	1.01 ± 0.044	1.04 ± 0.098	1.01 ± 0.15	1.11 ± 0.07	1.03 ± 0.11
UniProt Q8NDX5 and related entries	0.983 ± 0.11	1.06 ± 0.081	0.943 ± 0.095	1.08 ± 0.18	1.04 ± 0.12	1.12 ± 0.059
ZNRF2 (UniProt Q8NHG8)	0.937 ± 0.046	0.897 ± 0.067	0.921 ± 0.054	0.931 ± 0.076	0.857 ± 0.054	0.861 ± 0.062
UniProt Q8NHY2 and related entries	0.989 ± 0.08	0.947 ± 0.055	0.978 ± 0.071	0.894 ± 0.14	0.972 ± 0.088	0.992 ± 0.085
UniProt Q8TB72 and related entries	0.864 ± 0.02	0.909 ± 0.014	0.882 ± 0.027	0.9161 ± 0.0047	0.855 ± 0.0097	0.898 ± 0.026
ENGASE (UniProt Q8NFI3)	1.03 ± 0.097	1.08 ± 0.047	1.09 ± 0.017	1.03 ± 0.048	1.08 ± 0.02	1.07 ± 0.038
TTC5 (UniProt Q8N0Z6)	0.9498 ± 0.0036	0.933 ± 0.039	0.969 ± 0.04	0.95 ± 0.025	0.96 ± 0.033	0.985 ± 0.03
ZCCHC9 (UniProt Q8N567)	1.16 ± 0.029	1.25 ± 0.082	1.33 ± 0.025	1.43 ± 0.051	1.38 ± 0.08	1.37 ± 0.069
UniProt Q8IWV8 and related entries	1.08 ± 0.078	1.04 ± 0.098	1.04 ± 0.064	0.967 ± 0.071	1.05 ± 0.053	1 ± 0.057
PRPF38A (UniProt Q8NAV1)	1.11 ± 0.046	1.17 ± 0.036	1.07 ± 0.044	1.01 ± 0.098	0.991 ± 0.061	1.13 ± 0.041
UniProt Q8N3X6 and related entries	0.923 ± 0.067	0.913 ± 0.098	0.979 ± 0.056	1.01 ± 0.034	0.844 ± 0.081	0.893 ± 0.089
UniProt Q8IX90	0.94 ± 0.038	0.967 ± 0.046	0.969 ± 0.023	0.999 ± 0.05	0.961 ± 0.024	0.957 ± 0.032
RBM12B (UniProt Q8IXT5)	1.09 ± 0.055	1.13 ± 0.092	1.19 ± 0.12	1.23 ± 0.1	1.28 ± 0.18	1.4 ± 0.11
DTWD2 (UniProt Q8NBA8)	1.06 ± 0.076	0.98 ± 0.084	1.02 ± 0.13	0.969 ± 0.1	0.916 ± 0.12	0.966 ± 0.053
MOSPD2 (UniProt Q8NHP6)	0.991 ± 0.11	0.954 ± 0.088	0.984 ± 0.12	0.972 ± 0.09	0.992 ± 0.089	0.978 ± 0.074
ANKRD13A (UniProt Q8IZ07)	1.03 ± 0.11	0.981 ± 0.084	0.998 ± 0.081	0.956 ± 0.055	0.998 ± 0.022	1 ± 0.047
UniProt Q8N8R7	0.981 ± 0.046	0.992 ± 0.031	0.94 ± 0.033	0.962 ± 0.031	0.962 ± 0.04	0.899 ± 0.065

Whole records, quoted from the list.
ANKRD13A (UniProt Q8IZ07) is listed with NP40-soluble protein abundance (concentration: 1mM): 1.03 ± 0.11; NP40-soluble protein abundance (concentration: 2mM): 0.981 ± 0.084; NP40-soluble protein abundance (concentration: 4mM): 0.998 ± 0.081; NP40-soluble protein abundance (concentration: 6mM): 0.956 ± 0.055; NP40-soluble protein abundance (concentration: 8mM): 0.998 ± 0.022; NP40-soluble protein abundance (concentration: 10mM): 1 ± 0.047
UniProt Q8N3X6 and related entries is listed with NP40-soluble protein abundance (concentration: 1mM): 0.923 ± 0.067; NP40-soluble protein abundance (concentration: 2mM): 0.913 ± 0.098; NP40-soluble protein abundance (concentration: 4mM): 0.979 ± 0.056; NP40-soluble protein abundance (concentration: 6mM): 1.01 ± 0.034; NP40-soluble protein abundance (concentration: 8mM): 0.844 ± 0.081; NP40-soluble protein abundance (concentration: 10mM): 0.893 ± 0.089
